{"sequences": {"note": "Protein sequences, listed by entry. Tags and fused reporters are not part of them. Residues count along the entry.", "UniProt Q9QUK6, residues 26-835": "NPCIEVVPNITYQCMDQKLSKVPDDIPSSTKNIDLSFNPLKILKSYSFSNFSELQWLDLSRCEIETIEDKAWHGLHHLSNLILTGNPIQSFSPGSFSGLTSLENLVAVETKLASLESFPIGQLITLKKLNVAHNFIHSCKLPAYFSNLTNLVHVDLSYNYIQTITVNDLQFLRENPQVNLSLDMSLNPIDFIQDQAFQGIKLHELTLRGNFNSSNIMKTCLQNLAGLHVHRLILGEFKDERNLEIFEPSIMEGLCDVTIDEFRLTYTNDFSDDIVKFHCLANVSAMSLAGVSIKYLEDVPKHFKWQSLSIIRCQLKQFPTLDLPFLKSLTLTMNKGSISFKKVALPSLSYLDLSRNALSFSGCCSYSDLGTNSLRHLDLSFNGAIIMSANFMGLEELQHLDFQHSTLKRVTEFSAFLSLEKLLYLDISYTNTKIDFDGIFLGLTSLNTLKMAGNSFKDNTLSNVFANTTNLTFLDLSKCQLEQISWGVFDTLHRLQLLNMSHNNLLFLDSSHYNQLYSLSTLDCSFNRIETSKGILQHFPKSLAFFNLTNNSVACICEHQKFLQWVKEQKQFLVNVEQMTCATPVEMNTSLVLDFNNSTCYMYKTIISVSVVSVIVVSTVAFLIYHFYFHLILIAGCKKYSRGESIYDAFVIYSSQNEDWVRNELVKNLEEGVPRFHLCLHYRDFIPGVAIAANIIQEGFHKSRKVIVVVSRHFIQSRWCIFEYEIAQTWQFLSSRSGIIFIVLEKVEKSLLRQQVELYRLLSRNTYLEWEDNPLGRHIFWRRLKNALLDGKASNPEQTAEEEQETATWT"}, "source": "paper PMC6880548", "molecular_target": "Toll-like receptor 4 (mouse (endogenous in mouse brain tissue)) (UniProt Q9QUK6)", "experiment": "co-IP; rat anti-TLR4 IP from RIPA lysate of mouse brain tissue at the bleeding site, third day after inducing ICH with collagenase VII; protein A/G Plus-agarose overnight at 4 °C, washed thrice with PBS; Western blot for TLR4, CD14 and collagenase", "note": "These are yes or no findings as the source states them, for the method shown. In cells and extracts the contact can be indirect. Some entries that bind do so weakly or less than the wild type."}
{"binder": "CD14 (protein, UniProt P10810 16-336) SPAPPEPCELDEESCSCNFSDPKPDWSSAFNCLGAADVELYGGGRSLEYLLKRVDTEADLGQFTDIIKSLSLKRLTVRAARIPSRILFGALRVLGISGLQELTLENLEVTGTAPPPLLEATGPDLNILNLRNVSWATRDAWLAELQQWLKPGLKVLSIAQAHSLNFSCEQVRVFPALSTLDLSDNPELGERGLISALCPLKFPTLQVLALRNAGMETPSGVCSALAAARVQLQGLDLSHNSLRDAAGAPSCDWPSQLNSLNLSFTGLKQVPKGLPAKLSVLDLSYNRLDRNPSPDELPQVGNLSLKGNPFLDSESHSEKFN", "values": [{"measurement": "binding", "result": "binds"}]}
